PubChem BioAssay AID1259308 | NCATS | 2017

Aim: 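Genes whose loss raises luciferase production in HEK293 cells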 (primary screen)
System: human HEK293 embryonic kidney cells stably expressing firefly luciferase (HEK-CMV-Luc2-Hygro)
Reagent: single siRNA against human genes, 0.8 pmol siRNA per well
Duration: 72 h
Measurement: 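Luciferase light (ONE-Glo) measured on one replicate plate set and viability (CellTiter-Glo) on the other, scaled to a negative control siRNA, with robust z-scores and luciferase per cell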
Direction: total luciferase, z-score and total luciferase, % of control: higher = more reporter protein produced; luciferase per cell, z-score: higher = more reporter output per viable cell; viable cells, % of control: higher = more viable cells
Hit rule: 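Active when the median/MAD z-score for overall luciferase is greater than 3; a gene was taken forward for validation with new siRNAs if at least two of its three siRNAs passed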
Calls: active = raised luciferase; inactive = no rise
The deposit covers about 59,000 reagents; below is a part drawn at random. Over the whole deposit, about 1,510 (2.6%) are marked active. 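Calls use total luciferase alone and ignore viability, so some active siRNAs may act by altering cell number.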 Entries without a mark were called inactive. Reagents against one gene are numbered here. Reagent sequences are not shown.

no.	target gene	reagent	total luciferase, z-score	total luciferase, % of control	luciferase per cell, z-score	viable cells, % of control
1	SAMD13	1	0.11	84.1	-0.0355	94.8
2	SAMD13	2	-1.3	55.9	-1.3	88.1
3	SAMD13	3	-1.07	60.7	-1.72	107
4	GOLGA8A	1	-1.1	59.9	-0.873	84.3
5	GOLGA8A	2	0.182	85.5	-0.0366	96.5
6	GOLGA8A	3	-1.35	55	-0.386	68
7	TRIM8	1	2.9	140	1.8	97.1
8	TRIM8	2	0.314	88.1	1.5	66.4
9	TRIM8	3	0.899	99.8	1	85.7
10	GGT7	1	0.517	92.2	0.508	90.1
11	GGT7	2	0.0534	82.9	-0.215	98.1
12	GGT7	3	1.59	113	0.857	101
13	MFAP3	1	0.852	98.8	1.03	84.2
14	MFAP3	2	-0.0122	81.6	0.0182	90.8
15	MFAP3	3	0.311	88.1	-0.137	102
16	OR13D1	1	-2.65	29.1	-2.38	60.9
17	OR13D1	2	-1.67	48.6	-1.38	78
18	OR13D1	3	0.0741	83.4	0.375	84.4
19	GPR149	1	1.63	114	1.1	95.7
20	GPR149	2	-0.322	75.5	-0.823	105
21	GPR149	3	-1.57	50.6	-1.89	93.1

Entries above whose target name begins with S or s:
target gene	reagent	total luciferase, z-score	total luciferase, % of control	luciferase per cell, z-score	viable cells, % of control
SAMD13	1	0.11	84.1	-0.0355	94.8
SAMD13	2	-1.3	55.9	-1.3	88.1
SAMD13	3	-1.07	60.7	-1.72	107

Further records follow.
no.	target gene	reagent	total luciferase, z-score	total luciferase, % of control	luciferase per cell, z-score	viable cells, % of control
22	SLC35A5	1	0.285	87.6	0.947	76.2
23	SLC35A5	2	0.207	86	-0.199	101
24	SLC35A5	3	-0.861	64.8	-0.144	75.2
25	RETN	1	-0.0962	80	-0.351	98
26	RETN	2	-0.967	62.6	-1.18	95.5
27	RETN	3	2.1	124	2.14	78.6
28	C2CD2	1	0.686	95.5	-0.116	110
29	C2CD2	2	2.28	127	1.72	90.5
30	C2CD2	3	-0.404	73.9	-0.463	93.2
31	HHATL	1	-0.202	77.9	-0.655	103
32	HHATL	2	0.849	98.8	0.537	95.8
33	HHATL	3	1.09	103	0.826	93
34	RNF180	1	1.27	107	0.345	109
35	RNF180	2	-0.527	71.4	-0.554	92.3
36	RNF180	3	-1.53	51.5	-1.35	82.1
37	KCNK3	1	-0.4	73.9	-0.164	86.2
38	KCNK3	2	0.201	85.9	0.419	85.9
39	KCNK3	3	1.32	108	0.267	113
40	OR5B2	1	-0.0408	81.1	0.726	74.8
41	OR5B2	2	0.865	99.1	0.9	87.4
42	OR5B2	3	-1.76	46.8	-0.976	67.6
43	IKZF4	1	0.683	95.5	0.55	92.3
44	IKZF4	2	-0.379	74.4	-0.0237	83.6
45	IKZF4	3	3.42 (active)	150	2.7	82.3
46	MS4A4E	1	-0.0187	81.5	1.06	68.9
47	MS4A4E	2	2.62	134	2.18	84.3
48	MS4A4E	3	3.4 (active)	149	2.58	84.6
49	SPEF2	1	0.0572	83	-0.397	103
50	SPEF2	2	-0.0671	80.6	-0.429	101
51	SPEF2	3	-1.35	55	-0.345	67.3
52	ZSCAN16	1	-1.04	61.2	-1.3	96.2
53	ZSCAN16	2	0.493	91.7	-0.0691	104
54	ZSCAN16	3	-0.789	66.2	-0.695	88.8
55	RGS9BP	1	0.312	88.1	1.65	63.8
56	RGS9BP	2	0.423	90.3	0.428	90.1
57	RGS9BP	3	-1.53	51.4	-0.73	69.6
